Assay results: the supplement of paper PMC10849652
The other results are listed elsewhere or left out.

Sequences of proteins named here, by UniProt entry; tags and fusion partners are left off. A change or cut given only in a name is not applied to a line headed by its entry.
UniProt Q9UEG4: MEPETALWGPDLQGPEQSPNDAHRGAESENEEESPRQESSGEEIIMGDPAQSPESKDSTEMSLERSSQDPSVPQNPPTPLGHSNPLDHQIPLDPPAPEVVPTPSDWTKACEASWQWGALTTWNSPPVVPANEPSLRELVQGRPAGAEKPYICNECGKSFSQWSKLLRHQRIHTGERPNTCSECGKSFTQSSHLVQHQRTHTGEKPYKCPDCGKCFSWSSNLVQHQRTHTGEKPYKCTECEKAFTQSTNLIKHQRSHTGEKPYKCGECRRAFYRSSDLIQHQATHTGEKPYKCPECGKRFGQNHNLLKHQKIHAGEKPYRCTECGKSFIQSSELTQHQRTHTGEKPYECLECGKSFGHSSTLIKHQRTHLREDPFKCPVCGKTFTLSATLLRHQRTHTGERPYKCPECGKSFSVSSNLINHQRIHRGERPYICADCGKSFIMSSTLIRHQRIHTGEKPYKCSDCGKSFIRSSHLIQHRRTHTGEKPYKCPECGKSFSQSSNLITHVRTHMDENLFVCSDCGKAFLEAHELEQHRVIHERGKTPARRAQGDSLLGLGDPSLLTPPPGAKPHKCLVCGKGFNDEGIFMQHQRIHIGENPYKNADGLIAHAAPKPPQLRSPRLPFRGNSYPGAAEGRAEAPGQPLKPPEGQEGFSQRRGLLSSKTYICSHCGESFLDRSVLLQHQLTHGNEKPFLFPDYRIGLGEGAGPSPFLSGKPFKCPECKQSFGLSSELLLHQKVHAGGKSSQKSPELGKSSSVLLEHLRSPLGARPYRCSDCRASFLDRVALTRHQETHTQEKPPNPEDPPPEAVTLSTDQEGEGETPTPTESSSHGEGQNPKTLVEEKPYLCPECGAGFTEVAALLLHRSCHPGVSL
UniProt Q96NB3: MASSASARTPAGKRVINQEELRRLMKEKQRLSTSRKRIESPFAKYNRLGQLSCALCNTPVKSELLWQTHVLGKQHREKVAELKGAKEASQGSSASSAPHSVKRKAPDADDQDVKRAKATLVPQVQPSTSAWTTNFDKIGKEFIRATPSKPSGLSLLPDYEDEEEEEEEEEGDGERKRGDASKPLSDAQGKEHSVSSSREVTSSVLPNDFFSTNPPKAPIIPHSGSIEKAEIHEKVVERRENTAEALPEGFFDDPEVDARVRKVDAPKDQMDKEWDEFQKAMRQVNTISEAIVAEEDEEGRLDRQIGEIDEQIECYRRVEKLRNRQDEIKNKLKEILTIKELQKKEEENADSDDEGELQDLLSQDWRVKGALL
UniProt O43149: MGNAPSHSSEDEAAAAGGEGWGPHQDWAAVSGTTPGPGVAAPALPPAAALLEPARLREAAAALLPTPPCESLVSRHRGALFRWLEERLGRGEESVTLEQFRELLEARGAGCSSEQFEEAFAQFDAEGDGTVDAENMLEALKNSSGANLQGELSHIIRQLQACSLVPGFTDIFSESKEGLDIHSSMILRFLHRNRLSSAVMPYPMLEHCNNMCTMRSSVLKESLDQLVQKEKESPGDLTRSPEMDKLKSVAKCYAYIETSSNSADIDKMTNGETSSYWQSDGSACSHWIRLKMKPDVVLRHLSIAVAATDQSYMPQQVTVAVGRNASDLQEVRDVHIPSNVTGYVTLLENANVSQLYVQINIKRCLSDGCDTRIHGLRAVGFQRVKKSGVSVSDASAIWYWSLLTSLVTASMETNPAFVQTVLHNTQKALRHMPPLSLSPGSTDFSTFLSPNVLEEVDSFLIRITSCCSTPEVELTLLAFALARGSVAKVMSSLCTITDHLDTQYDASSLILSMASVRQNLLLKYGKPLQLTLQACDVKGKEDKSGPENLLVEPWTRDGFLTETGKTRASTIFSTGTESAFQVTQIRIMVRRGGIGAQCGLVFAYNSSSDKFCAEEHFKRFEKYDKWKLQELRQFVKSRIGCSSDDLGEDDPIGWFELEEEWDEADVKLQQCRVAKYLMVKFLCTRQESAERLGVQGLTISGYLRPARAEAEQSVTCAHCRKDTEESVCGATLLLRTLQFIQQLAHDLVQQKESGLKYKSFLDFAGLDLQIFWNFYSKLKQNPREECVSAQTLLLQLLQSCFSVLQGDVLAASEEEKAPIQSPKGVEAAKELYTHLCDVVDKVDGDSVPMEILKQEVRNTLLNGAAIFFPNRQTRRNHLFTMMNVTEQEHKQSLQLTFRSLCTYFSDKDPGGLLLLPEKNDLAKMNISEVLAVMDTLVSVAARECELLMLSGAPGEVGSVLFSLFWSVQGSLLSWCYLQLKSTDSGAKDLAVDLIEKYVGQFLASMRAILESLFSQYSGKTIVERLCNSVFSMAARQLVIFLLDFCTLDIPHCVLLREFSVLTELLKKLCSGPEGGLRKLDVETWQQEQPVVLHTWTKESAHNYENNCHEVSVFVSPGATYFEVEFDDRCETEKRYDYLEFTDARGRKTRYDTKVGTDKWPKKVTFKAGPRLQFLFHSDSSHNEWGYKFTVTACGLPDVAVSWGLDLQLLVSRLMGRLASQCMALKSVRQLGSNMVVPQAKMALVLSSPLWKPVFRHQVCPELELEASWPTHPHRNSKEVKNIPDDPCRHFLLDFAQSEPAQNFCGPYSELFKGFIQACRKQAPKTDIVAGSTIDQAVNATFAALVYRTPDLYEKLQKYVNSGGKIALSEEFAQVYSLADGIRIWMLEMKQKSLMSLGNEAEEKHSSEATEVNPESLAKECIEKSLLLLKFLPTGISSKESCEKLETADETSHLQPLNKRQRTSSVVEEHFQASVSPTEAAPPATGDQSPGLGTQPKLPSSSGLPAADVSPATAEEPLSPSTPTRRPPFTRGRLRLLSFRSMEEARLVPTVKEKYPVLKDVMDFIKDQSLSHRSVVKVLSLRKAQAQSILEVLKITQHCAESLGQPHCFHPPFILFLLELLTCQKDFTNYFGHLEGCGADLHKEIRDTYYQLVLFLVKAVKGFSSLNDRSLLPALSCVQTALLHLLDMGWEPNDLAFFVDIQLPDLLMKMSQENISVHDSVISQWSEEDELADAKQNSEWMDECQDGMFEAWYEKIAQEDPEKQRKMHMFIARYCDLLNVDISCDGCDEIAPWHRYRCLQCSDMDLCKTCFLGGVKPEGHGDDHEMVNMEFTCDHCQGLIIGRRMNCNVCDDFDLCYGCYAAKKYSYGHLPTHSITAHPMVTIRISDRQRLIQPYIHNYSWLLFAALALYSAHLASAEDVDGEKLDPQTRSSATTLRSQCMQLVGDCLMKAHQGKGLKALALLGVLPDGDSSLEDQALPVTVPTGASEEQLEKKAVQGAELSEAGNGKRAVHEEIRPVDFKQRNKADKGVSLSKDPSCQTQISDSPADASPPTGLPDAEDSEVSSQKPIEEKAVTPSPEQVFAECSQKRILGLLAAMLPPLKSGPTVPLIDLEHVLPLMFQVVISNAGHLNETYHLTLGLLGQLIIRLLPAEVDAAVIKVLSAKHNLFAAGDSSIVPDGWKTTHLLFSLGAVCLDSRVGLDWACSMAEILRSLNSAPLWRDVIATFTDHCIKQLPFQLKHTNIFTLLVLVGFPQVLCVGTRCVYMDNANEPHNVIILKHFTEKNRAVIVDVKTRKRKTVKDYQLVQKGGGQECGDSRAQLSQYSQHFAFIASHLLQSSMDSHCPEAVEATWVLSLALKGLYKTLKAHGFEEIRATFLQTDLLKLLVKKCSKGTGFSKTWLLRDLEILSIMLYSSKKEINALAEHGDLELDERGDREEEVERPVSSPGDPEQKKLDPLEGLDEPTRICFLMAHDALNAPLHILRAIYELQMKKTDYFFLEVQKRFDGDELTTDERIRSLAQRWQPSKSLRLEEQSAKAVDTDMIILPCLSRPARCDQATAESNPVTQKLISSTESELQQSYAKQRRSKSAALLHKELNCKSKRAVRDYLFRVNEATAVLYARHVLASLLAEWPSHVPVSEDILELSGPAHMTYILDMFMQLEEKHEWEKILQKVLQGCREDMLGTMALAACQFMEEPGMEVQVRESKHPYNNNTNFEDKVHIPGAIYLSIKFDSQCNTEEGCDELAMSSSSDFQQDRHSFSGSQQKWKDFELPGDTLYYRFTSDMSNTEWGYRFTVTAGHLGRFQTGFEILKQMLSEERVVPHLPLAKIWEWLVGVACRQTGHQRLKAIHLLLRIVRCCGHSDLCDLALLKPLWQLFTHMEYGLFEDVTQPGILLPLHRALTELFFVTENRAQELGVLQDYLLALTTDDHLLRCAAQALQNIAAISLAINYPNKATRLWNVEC
UniProt P52739: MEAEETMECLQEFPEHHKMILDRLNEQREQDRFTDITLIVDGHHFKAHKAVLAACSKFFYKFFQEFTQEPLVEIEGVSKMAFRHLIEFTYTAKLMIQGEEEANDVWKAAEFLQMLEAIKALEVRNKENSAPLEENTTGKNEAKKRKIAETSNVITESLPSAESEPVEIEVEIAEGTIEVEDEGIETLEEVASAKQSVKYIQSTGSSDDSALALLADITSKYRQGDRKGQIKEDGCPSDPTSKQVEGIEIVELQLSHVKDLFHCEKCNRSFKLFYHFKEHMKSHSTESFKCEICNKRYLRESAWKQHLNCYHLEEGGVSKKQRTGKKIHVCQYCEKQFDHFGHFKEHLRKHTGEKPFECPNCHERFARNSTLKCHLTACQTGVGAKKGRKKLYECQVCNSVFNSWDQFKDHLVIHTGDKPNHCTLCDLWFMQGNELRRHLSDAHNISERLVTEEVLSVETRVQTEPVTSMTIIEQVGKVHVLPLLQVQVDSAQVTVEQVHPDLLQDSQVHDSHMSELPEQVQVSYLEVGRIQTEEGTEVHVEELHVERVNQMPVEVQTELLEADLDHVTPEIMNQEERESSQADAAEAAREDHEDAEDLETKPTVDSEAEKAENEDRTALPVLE
UniProt Q9UQR1: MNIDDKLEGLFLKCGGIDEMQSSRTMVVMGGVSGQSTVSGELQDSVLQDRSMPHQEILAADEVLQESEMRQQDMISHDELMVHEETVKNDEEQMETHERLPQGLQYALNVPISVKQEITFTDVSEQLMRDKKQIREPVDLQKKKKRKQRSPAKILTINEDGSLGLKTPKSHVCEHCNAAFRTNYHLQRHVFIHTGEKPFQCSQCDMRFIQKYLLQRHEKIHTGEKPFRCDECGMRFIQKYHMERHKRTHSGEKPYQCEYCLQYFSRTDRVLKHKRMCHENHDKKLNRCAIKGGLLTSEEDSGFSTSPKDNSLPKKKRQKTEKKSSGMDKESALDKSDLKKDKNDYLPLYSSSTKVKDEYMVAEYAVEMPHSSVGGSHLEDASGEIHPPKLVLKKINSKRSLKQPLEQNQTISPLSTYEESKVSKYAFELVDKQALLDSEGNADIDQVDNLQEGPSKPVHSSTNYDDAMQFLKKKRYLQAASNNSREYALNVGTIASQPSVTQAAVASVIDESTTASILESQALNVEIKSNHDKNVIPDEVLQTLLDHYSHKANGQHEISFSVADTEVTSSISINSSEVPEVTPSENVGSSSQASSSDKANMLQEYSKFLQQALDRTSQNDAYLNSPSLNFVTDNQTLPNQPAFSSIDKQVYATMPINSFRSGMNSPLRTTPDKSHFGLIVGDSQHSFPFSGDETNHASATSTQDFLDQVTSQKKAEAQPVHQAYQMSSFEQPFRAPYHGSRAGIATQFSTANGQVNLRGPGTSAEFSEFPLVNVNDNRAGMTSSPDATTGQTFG
UniProt O95218: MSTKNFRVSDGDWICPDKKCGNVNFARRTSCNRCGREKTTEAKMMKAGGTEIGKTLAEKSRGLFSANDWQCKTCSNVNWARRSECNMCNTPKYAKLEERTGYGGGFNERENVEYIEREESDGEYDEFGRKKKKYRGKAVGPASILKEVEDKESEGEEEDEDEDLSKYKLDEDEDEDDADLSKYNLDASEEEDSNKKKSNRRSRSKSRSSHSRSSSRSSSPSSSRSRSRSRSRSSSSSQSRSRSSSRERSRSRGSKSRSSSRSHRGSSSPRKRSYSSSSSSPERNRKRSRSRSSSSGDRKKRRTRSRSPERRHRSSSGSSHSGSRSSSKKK
UniProt Q03936: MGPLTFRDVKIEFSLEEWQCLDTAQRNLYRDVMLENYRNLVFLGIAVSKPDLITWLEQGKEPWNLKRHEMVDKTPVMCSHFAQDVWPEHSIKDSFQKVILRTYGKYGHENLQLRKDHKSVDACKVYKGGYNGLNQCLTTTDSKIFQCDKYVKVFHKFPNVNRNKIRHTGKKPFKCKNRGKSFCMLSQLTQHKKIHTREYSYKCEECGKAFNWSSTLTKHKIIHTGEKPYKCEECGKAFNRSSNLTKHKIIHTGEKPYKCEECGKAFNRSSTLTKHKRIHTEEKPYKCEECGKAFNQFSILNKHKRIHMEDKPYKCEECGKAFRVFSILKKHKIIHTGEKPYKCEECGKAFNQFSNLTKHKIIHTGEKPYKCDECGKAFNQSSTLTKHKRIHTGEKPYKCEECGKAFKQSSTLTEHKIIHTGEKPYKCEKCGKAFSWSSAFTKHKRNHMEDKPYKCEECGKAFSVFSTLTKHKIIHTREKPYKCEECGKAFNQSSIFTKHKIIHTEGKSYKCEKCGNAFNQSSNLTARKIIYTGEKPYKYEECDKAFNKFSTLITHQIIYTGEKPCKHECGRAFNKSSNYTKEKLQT

Columns and labels:
Assay in all cases: log2 fold change, soluble protein after heating vs DMSO (PISA); higher = thermal stabilisation; K562 lysate, 10 uM; active = over 0.2 and 3.5 SD of the protein, either way, in both replicates (recomputed)
[1] = compound: C1=CC=C(C=C1)[C@H](COC2=CC3=C(C=C2)NC(=O)N3)NC(=O)C4=CC=CN(C4=O)CC5=CC(=C(C=C5)F)F
Summary of the method: (§1)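 Dounce homogenisation of K562 pellets in PBS pH 7.4 with 1 mM MgCl2 produced a crude extract, used at 1 mg/mL protein. Exposure to 10 μM compound lasted 30 min, and aliquots were then heated for 3 min across 48°C-58°C, pooled and brought to 0.5% NP-40 at 4°C. The supernatant after 21,000xg for 90 min was quantified by TMTpro 16plex LC-MS/MS with channel sums equalised. Duplicate values are given as log-two fold change in thermal stability relative to solvent controls.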

[2] = compound: CC1=C(SC2=C1C(=N[C@H](C3=NN=C(N32)C)CC(=O)N)C4=CC=C(C=C4)Cl)C
Summary of the method: as §1

[3] = compound: CC1=C2C(=CC=C1)N=C(N(C2=O)C3=CC=CC=C3C)CN4C=NC5=C(N=CN=C54)N
Summary of the method: as §1

[4] = compound: Cc1sc2c(c1C)C(c1ccc(Cl)cc1)=N[C@@H](CC(=O)OC(C)(C)C)c1nnc(C)n1-2
Summary of the method: as §1

[5] = compound: c1ccc([C@@H]2C[C@H]2NC2CCNCC2)cc1
Summary of the method: as §1

Measured: log2 fold change

ZNF672 (UniProt Q499Z4)
inactive: [1] 0.058 | [2] -0.048 | [3] 0.017 | [4] -0.003 | [5] 0.105

ZNF618 (UniProt Q5T7W0)
inactive: [1] -0.03 | [2] -0.048 | [3] 0.044 | [4] -0.059 | [5] -0.099

ZNF629 (UniProt Q9UEG4)
inactive: [1] -0.121 | [2] 0.196 | [3] -0.014 | [4] 0.029 | [5] 0.089

ZMYM3 (UniProt Q14202)
inactive: [1] -0.004 | [2] -0.033 | [3] -0.014 | [4] -0.006 | [5] 0.01

ZNF830 (UniProt Q96NB3)
inactive: [1] -0.004 | [2] 0.002 | [3] -0.018 | [4] -0.023 | [5] 0.031

ZNF768 (UniProt Q9H5H4)
inactive: [1] 0.096 | [2] -0.08 | [3] 0.047 | [4] 0.029 | [5] -0.023

ZPR1 (UniProt O75312)
inactive: [1] 0.015 | [2] -0.018 | [3] 0.003 | [4] 0.027 | [5] 0.004

ZNF428 (UniProt M0QXZ5)
inactive: [1] 0.083 | [2] 0.052 | [3] -0.049 | [4] 0.065 | [5] -0.135

ZNHIT2 (UniProt Q9UHR6)
inactive: [1] -0.143 | [2] 0.119 | [3] 0.108 | [4] -0.024 | [5] -0.291

ZNF512 (UniProt Q96ME7)
inactive: [1] 0.009 | [2] -0.088 | [3] 0.028 | [4] 0.099 | [5] 0.074

ZZEF1 (UniProt O43149)
inactive: [1] -0.022 | [2] -0.004 | [3] 0.012 | [4] -0.05 | [5] -0.028

ZNF131 (UniProt P52739)
inactive: [1] 0.044 | [2] 0.04 | [3] -0.028 | [4] -0.024 | [5] -0.076

ZNF8 (UniProt P17098)
inactive: [1] -0.313 | [2] -0.109 | [3] 0.048 | [4] -0.106 | [5] 0.045

ZMYND8 isoform 19 (UniProt Q9ULU4)
inactive: [1] -0.006 | [2] -0.011 | [3] 0.055 | [4] 0.011 | [5] -0.026

ZHX3 (UniProt Q9H4I2)
inactive: [1] -0.221 | [2] 0.057 | [3] -0.135 | [4] -0.021 | [5] -0.04

ZNHIT6 (UniProt Q9NWK9)
inactive: [1] 0.106 | [2] -0.063 | [3] 0.013 | [4] 0.089 | [5] 0.008

ZNF148 (UniProt Q9UQR1)
inactive: [1] -0.082 | [2] 0.148 | [3] -0.023 | [4] 0.025 | [5] 0.143

ZNF22 (UniProt P17026)
inactive: [1] 0.082 | [2] 0.044 | [3] -0.518 | [4] -0.077 | [5] -0.042

ZSWIM8 isoform 4 (UniProt A7E2V4)
inactive: [1] 0.076 | [2] -0.038 | [3] 0.071 | [4] 0.013 | [5] 0.03

ZNF845 (UniProt Q96IR2)
inactive: [1] -0.239 | [2] 0.048 | [3] 0.114 | [4] -0.058 | [5] 0.083

ZRANB2 (UniProt O95218)
inactive: [1] 0.061 | [2] -0.018 | [3] -0.014 | [4] -0.041 | [5] -0.005

ZNF593 (UniProt O00488)
inactive: [1] -0.038 | [2] 0.051 | [3] 0.008 | [4] 0.127 | [5] 0.035

ZNF451 (UniProt Q9Y4E5)
inactive: [1] -0.038 | [2] 0.03 | [3] -0.014 | [4] 0.018 | [5] 0.009

ZNF92 (UniProt Q03936)
inactive: [1] -0.039 | [2] 0.114 | [3] -0.064 | [4] 0.095 | [5] 0.078
